This is one part of the list.
What was measured:
Test in all cases: log2 fold change, soluble protein after heating vs DMSO (PISA); higher = thermal stabilisation; K562 cells, 10 uM, 30 min; active = over 0.2 and 3.5 SD of the protein, either way, in both replicates (recomputed)
[1] = compound: CC[C@@H]1C(=O)N(C)c2cnc(Nc3ccc(C(=O)NC4CCN(C)CC4)cc3OC)nc2N1C1CCCC1
Method in brief: (§1)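 K562 cells at 2×10^6 cells/mL were exposed to 10 μM compound for 30 min, then aliquots were heated for 3 min across 48°C-58°C, pooled, and extracted in PBS containing 0.5% NP-40 at 4°C. The supernatant after 21,000xg for 90 min was taken as soluble protein and measured by TMTpro 16plex LC-MS/MS with channel sums equalised. Thermal stability is reported relative to control samples, with values from duplicates. Fold changes are given on a log2 scale.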

Chains of the proteins cited; added tags and fusions are not shown. Lines headed by an entry give the natural chain unless they say otherwise; changes in a name come on top.
UniProt Q9NSK0: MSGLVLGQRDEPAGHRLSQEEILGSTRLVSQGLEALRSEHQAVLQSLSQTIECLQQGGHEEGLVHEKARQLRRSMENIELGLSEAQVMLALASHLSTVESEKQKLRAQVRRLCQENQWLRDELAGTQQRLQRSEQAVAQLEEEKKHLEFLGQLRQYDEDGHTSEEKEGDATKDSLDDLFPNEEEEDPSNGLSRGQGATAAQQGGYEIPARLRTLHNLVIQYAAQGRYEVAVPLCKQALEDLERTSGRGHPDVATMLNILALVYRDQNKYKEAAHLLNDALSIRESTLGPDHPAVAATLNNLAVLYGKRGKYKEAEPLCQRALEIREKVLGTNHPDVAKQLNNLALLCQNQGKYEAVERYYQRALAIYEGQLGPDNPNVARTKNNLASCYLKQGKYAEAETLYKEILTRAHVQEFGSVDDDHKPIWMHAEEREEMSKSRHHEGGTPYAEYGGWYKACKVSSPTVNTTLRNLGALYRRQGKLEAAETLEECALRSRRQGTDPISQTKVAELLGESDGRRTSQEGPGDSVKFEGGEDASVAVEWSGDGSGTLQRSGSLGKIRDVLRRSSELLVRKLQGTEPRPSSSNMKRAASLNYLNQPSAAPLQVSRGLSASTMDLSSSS
UniProt Q15652: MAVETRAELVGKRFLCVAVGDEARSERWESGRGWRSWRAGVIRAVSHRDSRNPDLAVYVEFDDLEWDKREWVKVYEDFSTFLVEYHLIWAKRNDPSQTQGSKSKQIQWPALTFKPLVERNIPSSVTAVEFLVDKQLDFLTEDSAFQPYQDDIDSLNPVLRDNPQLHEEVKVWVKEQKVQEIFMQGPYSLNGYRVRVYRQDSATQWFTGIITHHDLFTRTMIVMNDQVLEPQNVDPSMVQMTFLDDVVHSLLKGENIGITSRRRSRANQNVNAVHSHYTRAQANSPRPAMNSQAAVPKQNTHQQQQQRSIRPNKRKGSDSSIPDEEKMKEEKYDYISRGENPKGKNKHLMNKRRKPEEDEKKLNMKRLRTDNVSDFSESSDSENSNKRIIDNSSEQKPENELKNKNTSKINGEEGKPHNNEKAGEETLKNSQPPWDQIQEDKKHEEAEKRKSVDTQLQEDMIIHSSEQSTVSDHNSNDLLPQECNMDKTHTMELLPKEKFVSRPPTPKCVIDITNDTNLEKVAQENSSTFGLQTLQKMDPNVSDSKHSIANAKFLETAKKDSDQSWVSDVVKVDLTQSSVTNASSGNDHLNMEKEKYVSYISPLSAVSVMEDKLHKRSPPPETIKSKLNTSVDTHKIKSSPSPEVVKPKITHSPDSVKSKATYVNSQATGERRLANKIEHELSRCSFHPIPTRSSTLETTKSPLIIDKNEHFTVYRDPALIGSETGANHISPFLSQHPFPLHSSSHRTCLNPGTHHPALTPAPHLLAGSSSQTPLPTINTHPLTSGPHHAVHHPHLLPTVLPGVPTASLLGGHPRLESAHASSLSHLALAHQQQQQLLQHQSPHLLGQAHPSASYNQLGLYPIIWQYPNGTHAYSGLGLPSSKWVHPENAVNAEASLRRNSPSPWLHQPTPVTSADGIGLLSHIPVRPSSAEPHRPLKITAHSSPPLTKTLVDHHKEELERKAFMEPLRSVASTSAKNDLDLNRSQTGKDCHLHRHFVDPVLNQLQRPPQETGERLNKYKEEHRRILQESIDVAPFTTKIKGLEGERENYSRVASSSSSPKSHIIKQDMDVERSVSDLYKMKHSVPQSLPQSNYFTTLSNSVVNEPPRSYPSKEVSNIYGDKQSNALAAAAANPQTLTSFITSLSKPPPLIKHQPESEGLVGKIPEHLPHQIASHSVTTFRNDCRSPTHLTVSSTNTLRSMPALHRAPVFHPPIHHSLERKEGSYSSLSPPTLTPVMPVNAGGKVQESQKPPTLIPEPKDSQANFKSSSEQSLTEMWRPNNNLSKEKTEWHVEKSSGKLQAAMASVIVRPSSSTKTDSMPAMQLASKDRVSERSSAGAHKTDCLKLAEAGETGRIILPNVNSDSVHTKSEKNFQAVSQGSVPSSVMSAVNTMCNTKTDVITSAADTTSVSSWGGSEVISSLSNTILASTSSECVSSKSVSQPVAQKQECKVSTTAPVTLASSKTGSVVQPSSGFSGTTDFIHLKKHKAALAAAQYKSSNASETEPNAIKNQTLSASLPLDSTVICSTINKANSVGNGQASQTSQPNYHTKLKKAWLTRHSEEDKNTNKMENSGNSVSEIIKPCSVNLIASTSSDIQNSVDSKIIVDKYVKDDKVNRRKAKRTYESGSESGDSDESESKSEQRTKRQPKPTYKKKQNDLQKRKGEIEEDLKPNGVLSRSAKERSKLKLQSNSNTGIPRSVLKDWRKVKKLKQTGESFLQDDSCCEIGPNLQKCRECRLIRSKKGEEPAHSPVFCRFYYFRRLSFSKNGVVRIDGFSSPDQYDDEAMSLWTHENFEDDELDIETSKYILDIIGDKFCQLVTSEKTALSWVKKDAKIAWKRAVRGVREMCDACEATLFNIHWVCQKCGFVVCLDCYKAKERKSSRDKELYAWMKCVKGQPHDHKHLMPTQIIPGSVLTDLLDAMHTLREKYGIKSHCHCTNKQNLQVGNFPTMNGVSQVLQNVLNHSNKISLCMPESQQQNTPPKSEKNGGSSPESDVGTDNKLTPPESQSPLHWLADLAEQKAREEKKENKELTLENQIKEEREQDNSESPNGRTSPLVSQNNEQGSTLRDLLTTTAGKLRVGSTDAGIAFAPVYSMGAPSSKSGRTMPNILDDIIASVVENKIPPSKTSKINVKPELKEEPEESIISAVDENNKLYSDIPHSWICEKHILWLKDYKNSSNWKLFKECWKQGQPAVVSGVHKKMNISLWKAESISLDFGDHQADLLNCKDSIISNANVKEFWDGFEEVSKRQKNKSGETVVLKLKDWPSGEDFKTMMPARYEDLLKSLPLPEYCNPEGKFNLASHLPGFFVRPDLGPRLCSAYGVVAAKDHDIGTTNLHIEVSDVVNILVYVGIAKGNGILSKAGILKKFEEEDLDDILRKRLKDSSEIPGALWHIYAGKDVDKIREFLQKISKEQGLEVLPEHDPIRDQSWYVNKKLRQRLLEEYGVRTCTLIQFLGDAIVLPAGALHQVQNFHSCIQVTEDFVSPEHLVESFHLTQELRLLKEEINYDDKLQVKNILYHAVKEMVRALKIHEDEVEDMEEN
UniProt O76095: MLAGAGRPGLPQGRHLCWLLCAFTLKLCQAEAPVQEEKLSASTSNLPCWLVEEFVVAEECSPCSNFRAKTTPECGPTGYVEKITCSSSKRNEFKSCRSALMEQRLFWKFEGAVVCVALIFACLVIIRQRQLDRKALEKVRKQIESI
UniProt Q07866: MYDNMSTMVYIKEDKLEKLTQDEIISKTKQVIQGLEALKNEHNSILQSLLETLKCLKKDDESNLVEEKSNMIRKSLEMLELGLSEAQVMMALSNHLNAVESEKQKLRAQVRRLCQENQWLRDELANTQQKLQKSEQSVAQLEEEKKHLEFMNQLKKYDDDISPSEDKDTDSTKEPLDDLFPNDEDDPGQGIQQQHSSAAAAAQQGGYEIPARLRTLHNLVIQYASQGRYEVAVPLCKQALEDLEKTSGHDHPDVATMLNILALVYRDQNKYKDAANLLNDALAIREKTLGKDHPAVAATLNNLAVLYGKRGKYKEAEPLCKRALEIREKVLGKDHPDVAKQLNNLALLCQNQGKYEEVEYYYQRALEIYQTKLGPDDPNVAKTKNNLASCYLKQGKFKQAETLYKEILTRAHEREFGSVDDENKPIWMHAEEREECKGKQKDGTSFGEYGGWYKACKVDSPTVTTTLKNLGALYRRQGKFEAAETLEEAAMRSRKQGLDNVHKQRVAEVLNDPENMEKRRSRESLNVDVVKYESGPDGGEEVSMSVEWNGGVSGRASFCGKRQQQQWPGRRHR
UniProt O00629, whole entry, looked up: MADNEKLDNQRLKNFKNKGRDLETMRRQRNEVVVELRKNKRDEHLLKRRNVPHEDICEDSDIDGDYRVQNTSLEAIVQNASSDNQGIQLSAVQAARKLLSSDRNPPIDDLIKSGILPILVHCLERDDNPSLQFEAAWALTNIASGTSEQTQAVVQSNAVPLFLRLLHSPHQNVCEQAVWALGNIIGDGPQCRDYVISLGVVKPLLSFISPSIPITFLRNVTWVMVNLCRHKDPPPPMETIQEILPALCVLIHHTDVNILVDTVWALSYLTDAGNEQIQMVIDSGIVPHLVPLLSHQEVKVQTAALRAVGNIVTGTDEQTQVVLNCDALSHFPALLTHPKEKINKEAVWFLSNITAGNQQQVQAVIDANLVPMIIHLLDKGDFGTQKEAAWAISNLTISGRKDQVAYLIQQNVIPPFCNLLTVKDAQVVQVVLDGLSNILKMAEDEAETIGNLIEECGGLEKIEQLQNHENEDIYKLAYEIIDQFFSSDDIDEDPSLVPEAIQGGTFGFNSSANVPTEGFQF
UniProt O00180: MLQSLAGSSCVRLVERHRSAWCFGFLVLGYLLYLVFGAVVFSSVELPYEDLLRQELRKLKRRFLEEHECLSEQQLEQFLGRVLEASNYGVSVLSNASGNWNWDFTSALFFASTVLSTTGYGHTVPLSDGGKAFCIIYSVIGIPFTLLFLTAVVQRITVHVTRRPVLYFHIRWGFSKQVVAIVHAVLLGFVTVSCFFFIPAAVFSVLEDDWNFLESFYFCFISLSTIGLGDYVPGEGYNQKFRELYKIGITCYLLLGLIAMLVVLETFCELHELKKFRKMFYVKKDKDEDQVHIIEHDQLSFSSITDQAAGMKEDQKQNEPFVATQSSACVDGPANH
UniProt Q7Z4S6: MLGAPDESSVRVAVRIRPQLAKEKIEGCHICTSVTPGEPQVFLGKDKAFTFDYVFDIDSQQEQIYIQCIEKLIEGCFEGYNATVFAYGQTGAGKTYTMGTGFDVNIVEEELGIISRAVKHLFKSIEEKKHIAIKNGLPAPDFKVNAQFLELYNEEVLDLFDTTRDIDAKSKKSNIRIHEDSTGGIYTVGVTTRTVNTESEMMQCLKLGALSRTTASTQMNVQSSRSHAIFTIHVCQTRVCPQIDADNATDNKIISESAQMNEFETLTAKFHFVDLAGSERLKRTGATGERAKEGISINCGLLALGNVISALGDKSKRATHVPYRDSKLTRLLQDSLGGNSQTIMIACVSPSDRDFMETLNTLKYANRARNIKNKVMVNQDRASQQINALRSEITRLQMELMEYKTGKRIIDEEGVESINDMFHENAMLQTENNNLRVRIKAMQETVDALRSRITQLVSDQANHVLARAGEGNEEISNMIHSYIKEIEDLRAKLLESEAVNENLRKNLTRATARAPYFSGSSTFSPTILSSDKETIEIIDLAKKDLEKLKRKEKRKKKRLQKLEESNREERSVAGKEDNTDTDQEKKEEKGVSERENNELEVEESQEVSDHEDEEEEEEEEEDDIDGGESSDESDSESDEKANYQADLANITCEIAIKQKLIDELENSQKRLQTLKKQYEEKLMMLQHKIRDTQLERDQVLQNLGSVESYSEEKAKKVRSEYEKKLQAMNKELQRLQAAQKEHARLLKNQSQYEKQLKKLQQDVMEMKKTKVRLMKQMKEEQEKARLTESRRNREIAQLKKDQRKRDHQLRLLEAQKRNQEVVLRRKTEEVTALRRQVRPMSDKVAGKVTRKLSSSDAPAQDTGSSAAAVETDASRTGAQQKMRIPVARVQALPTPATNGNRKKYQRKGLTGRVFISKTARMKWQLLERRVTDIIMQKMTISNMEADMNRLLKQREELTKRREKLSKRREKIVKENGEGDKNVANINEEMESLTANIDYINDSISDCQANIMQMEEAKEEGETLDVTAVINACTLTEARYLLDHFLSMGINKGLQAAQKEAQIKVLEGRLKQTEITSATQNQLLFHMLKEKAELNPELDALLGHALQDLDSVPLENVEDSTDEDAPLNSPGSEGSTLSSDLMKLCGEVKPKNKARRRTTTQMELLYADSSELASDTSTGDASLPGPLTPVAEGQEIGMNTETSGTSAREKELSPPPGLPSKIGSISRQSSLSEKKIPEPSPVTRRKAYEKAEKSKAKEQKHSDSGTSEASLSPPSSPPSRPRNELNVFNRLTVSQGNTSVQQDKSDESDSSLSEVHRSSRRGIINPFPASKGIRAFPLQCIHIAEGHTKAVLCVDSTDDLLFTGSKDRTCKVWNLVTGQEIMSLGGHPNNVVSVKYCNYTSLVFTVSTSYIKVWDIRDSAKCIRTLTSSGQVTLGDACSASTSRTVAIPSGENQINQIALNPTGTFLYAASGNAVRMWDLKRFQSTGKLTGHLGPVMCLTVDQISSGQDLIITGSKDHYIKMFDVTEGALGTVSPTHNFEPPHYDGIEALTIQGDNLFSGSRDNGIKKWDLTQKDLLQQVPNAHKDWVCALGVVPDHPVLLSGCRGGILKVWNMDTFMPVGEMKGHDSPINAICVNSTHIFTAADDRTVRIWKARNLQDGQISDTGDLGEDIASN

[2] = compound: CC[C@@H]1C(=O)N(C)c2cnc(Nc3ccc(C(=O)N[C@H]4CC[C@H](N5CCN(CC6CC6)CC5)CC4)cc3OC)nc2N1C(C)C [volasertib]
Method in brief: as §1

[3] = compound: CC[C@H](C)N1C=C(C2=C(C=C(C=C21)C3=CN=C(C=C3)N4CCNCC4)C(=O)NCC5=C(C=C(NC5=O)C)C)C
Method in brief: as §1

[4] = compound: CC[C@H](C)[C@@H](C(=O)N[C@@H]([C@@H](C)O)C(=O)N[C@@H](CC(C)C)C(=O)[C@]1(CO1)C)NC(=O)[C@H]([C@@H](C)CC)N(C)C(=O)C [epoxomicin]
Method in brief: as §1

[5] = compound: CCn1c(C(=O)N(C2CC2)C2CC2)cc2c3c(ncn3C)c(Nc3cc(C)n(C)n3)nc21
Method in brief: as §1

[6] = compound: CCn1cc(-c2ccnc3[nH]c(-c4cccc(CN(C)C)c4)cc23)c(-c2ccc(NC(=O)N(C)C)cc2)n1
Method in brief: as §1

[7] = compound: CN(C)CC(=O)Nc1ccc2[nH]c(=O)c3ccccc3c2c1
Method in brief: as §1

[8] = compound: CN(CCOC1=CC=C(C=C1)C[C@H]2C(=O)NC(=O)S2)C3=CC=CC=N3 (racemic) [rosiglitazone]
Method in brief: as §1

[9] = compound: CN1C2=C(C3=C1C(=O)N(N=C3)CC4=CC(=CC=C4)N)SC(=C2)S(=O)C
Method in brief: as §1

[10] = compound: CN1CCC(CNc2ccc3ncc(-c4cccc(OC(F)(F)F)c4)n3n2)CC1
Method in brief: as §1

[11] = compound: CN1CCN(CCOc2cc(OC3CCOCC3)c3c(Nc4c(Cl)ccc5c4OCO5)ncnc3c2)CC1 [saracatinib]
Method in brief: as §1

[12] = compound: CN1CCN(c2nc(C3=C(c4c[nH]c5ccccc45)C(=O)NC3=O)c3ccccc3n2)CC1 [sotrastaurin]
Method in brief: as §1

[13] = compound: CN1CC[C@H](c2c(O)cc(O)c3c(=O)cc(-c4ccccc4Cl)oc23)[C@H](O)C1 [alvocidib]
Method in brief: as §1

[14] = compound: CN1CCc2c(c3ccccc3n2Cc2ccc(C(=O)NO)cc2)C1 [Tubastatin A]
Method in brief: as §1

[15] = compound: CNC(=O)C1=CC=CC=C1NC2=NC(=NC=C2Cl)NC3=C(C=C(C=C3)N4CCOCC4)OC
Method in brief: as §1

[16] = compound: CNC(=O)c1ccc(Nc2ncc(C(F)(F)F)c(NCc3nccnc3N(C)S(C)(=O)=O)n2)cc1 [defactinib]
Method in brief: as §1

[17] = compound: CNCc1ccc(-c2[nH]c3cc(F)cc4c3c2CCNC4=O)cc1 [rucaparib]
Method in brief: as §1

[18] = compound: CNc1nc(-c2ccc3c(N)n[nH]c3c2)cc(N2C[C@@H](C(=O)NC3CCCCC3)CC[C@H]2C)n1
Method in brief: as §1

[19] = compound: COC(=O)N[C@@H](C)CNc1nccc(-c2cn(C(C)C)nc2-c2cc(Cl)cc(NS(C)(=O)=O)c2F)n1 [encorafenib]
Method in brief: as §1

[20] = compound: COC(=O)[C@H](CCSC)NC(=O)C1=C(C=C(C=C1)NC[C@H](CS)N)C2=CC=CC=C2
Method in brief: as §1

Measured: log2 fold change

KLC4 isoform 3 (UniProt Q9NSK0)
inactive: [1] -0.009 | [2] -0.035 | [3] 0.024 | [4] 0.113 | [5] -0.085 | [6] -0.039 | [7] -0.01 | [8] -0.006 | [9] 0.003 | [10] -0.066 | [11] 0.026 | [12] -0.044 | [13] -0.027 | [14] 0.02 | [15] 0.037 | [16] -0.038 | [17] -0.031 | [18] -0.011 | [19] 0.036 | [20] 0.073

JMJD1C (UniProt Q15652)
inactive: [1] -0.125 | [2] -0.217 | [3] 0.003 | [4] 0.069 | [5] -0.074 | [6] -0.124 | [7] 0.065 | [8] 0.05 | [9] 0.009 | [10] -0.09 | [11] 0.008 | [12] -0.119 | [13] -0.069 | [14] 0.072 | [15] 0 | [16] -0.073 | [17] -0.023 | [18] -0.045 | [19] 0.042 | [20] 0.038

KDELR1 (UniProt P24390)
inactive: [1] 0.049 | [2] 0.118 | [3] 0.17 | [4] 0.022 | [5] -0.108 | [8] -0.113 | [9] -0.099 | [11] 0.195 | [12] -0.019 | [14] -0.168 | [15] 0.078 | [17] 0.059 | [18] -0.027 | [19] -0.022

KLHL11 (UniProt Q9NVR0)
inactive: [1] -0.104 | [2] -0.062 | [3] -0.064 | [4] -0.043 | [5] 0.099 | [6] 0.042 | [7] 0.018 | [8] 0.053 | [9] -0.04 | [10] -0.034 | [11] -0.029 | [12] -0.184 | [13] -0.034 | [14] -0.061 | [15] -0.014 | [16] -0.057 | [17] 0.05 | [18] 0.202 | [19] 0.141 | [20] -0.07

KPTN (UniProt Q9Y664)
inactive: [1] 0.019 | [2] -0.071 | [3] 0.162 | [4] 0.047 | [5] -0.004 | [6] 0.048 | [7] 0.055 | [8] 0.044 | [9] -0.023 | [10] -0.187 | [11] 0.006 | [13] -0.005 | [14] 0 | [15] -0.031 | [16] -0.09 | [17] -0.141 | [18] 0.106 | [19] -0.025 | [20] -0.094

JTB (UniProt O76095)
inactive: [1] -0.046 | [2] 0.013 | [3] 0.006 | [4] 0.069 | [5] -0.066 | [7] -0.115 | [8] -0.004 | [9] 0.012 | [11] -0.033 | [12] 0.22 | [13] -0.114 | [14] -0.072 | [15] 0.053 | [16] -0.007 | [17] 0.037 | [18] 0.058 | [19] -0.038 | [20] 0.124

KIAA1324L (UniProt A8MWY0)
active: [1] -0.312 | [2] -0.293
inactive: [3] -0.012 | [4] 0.015 | [6] -0.019 | [7] 0.091 | [9] -0.112 | [10] -0.14 | [11] 0.018 | [12] 0.014 | [14] -0.017 | [15] -0.014 | [16] 0.033 | [17] -0.021 | [18] 0.023 | [19] 0.015 | [20] 0.006

KLC1 isoform 6 (UniProt Q07866)
inactive: [1] 0.016 | [2] 0.025 | [3] 0.016 | [4] 0.068 | [5] 0.01 | [6] -0.026 | [7] 0.008 | [8] 0.012 | [9] -0.039 | [10] -0.054 | [11] 0.027 | [12] -0.017 | [13] -0.019 | [14] -0.014 | [15] 0.028 | [16] -0.023 | [17] -0.037 | [18] -0.001 | [19] 0.026 | [20] -0.009

KCTD10 (UniProt Q9H3F6)
inactive: [1] 0.046 | [2] 0.022 | [3] 0.055 | [4] -0.019 | [6] -0.01 | [7] 0.023 | [9] 0.003 | [11] 0.221 | [12] -0.002 | [14] 0.071 | [15] -0.011 | [16] 0.013 | [17] -0.07 | [18] 0.007 | [19] 0.015 | [20] -0.07
active: [10] 0.257

KCT2 (UniProt Q8NC54)
inactive: [1] -0.312 | [2] -0.076 | [3] -0.006 | [4] -0.063 | [6] -0.03 | [7] 0.064 | [9] -0.051 | [10] -0.037 | [11] 0.027 | [12] 0.042 | [14] -0.003 | [15] 0.096 | [16] -0.088 | [17] -0.008 | [18] 0.031 | [19] 0.063 | [20] -0.036

KPNA4 (UniProt O00629)
inactive: [1] -0.008 | [2] -0.251 | [3] 0.033 | [4] -0.008 | [6] 0.029 | [7] 0 | [9] -0.066 | [10] -0.052 | [11] 0.013 | [12] 0.032 | [14] -0.017 | [15] -0.052 | [16] -0.095 | [17] -0.117 | [18] 0 | [19] 0.016 | [20] 0.015

KCNK1 (UniProt O00180)
inactive: [1] 0.063 | [2] 0.036 | [3] 0.012 | [4] 0.051 | [5] -0.174 | [6] -0.069 | [8] -0.213 | [9] 0.027 | [10] 0.073 | [11] -0.353 | [12] 0.024 | [13] 0.136 | [15] 0.093 | [17] 0.16 | [18] 0 | [19] -0.182

KIF21A isoform 4 (UniProt Q7Z4S6)
inactive: [1] 0.073 | [2] -0.019 | [3] 0.038 | [4] 0.066 | [6] -0.121 | [7] 0.013 | [9] 0.054 | [10] 0.076 | [11] 0.001 | [12] -0.006 | [14] 0.094 | [15] 0.001 | [16] 0.016 | [17] 0.109 | [18] 0.077 | [19] 0.175 | [20] -0.072

KIAA0930 isoform 2 (UniProt Q6ICG6)
inactive: [1] 0.067 | [2] -0.058 | [3] -0.098 | [4] 0.073 | [5] -0.073 | [7] -0.012 | [8] -0.037 | [9] -0.035 | [11] -0.063 | [12] 0.087 | [13] 0.14 | [15] -0.024 | [16] 0.055 | [17] 0.075 | [18] 0.086 | [19] 0.032 | [20] 0.2

KDM1A isoform 2 (UniProt O60341)
inactive: [1] 0.135 | [2] -0.028 | [3] 0.06 | [4] 0.101 | [6] -0.111 | [7] 0.006 | [9] -0.001 | [10] -0.091 | [11] -0.061 | [12] -0.139 | [14] 0.127 | [15] -0.032 | [16] -0.065 | [17] 0.14 | [18] 0.021 | [19] 0.052 | [20] -0.032

Copied from the listing (four entries):
KCT2 (UniProt Q8NC54)
inactive: [1] -0.312 | [2] -0.076 | [3] -0.006 | [4] -0.063 | [6] -0.03 | [7] 0.064 | [9] -0.051 | [10] -0.037 | [11] 0.027 | [12] 0.042 | [14] -0.003 | [15] 0.096 | [16] -0.088 | [17] -0.008 | [18] 0.031 | [19] 0.063 | [20] -0.036

KPNA4 (UniProt O00629)
inactive: [1] -0.008 | [2] -0.251 | [3] 0.033 | [4] -0.008 | [6] 0.029 | [7] 0 | [9] -0.066 | [10] -0.052 | [11] 0.013 | [12] 0.032 | [14] -0.017 | [15] -0.052 | [16] -0.095 | [17] -0.117 | [18] 0 | [19] 0.016 | [20] 0.015

KCNK1 (UniProt O00180)
inactive: [1] 0.063 | [2] 0.036 | [3] 0.012 | [4] 0.051 | [5] -0.174 | [6] -0.069 | [8] -0.213 | [9] 0.027 | [10] 0.073 | [11] -0.353 | [12] 0.024 | [13] 0.136 | [15] 0.093 | [17] 0.16 | [18] 0 | [19] -0.182

KIF21A isoform 4 (UniProt Q7Z4S6)
inactive: [1] 0.073 | [2] -0.019 | [3] 0.038 | [4] 0.066 | [6] -0.121 | [7] 0.013 | [9] 0.054 | [10] 0.076 | [11] 0.001 | [12] -0.006 | [14] 0.094 | [15] 0.001 | [16] 0.016 | [17] 0.109 | [18] 0.077 | [19] 0.175 | [20] -0.072

(next part)

IWS1 (UniProt Q96ST2)
active: [13] 0.336
inactive: [1] 0.048 | [2] 0.034 | [3] 0.029 | [4] 0.006 | [6] 0.021 | [7] 0.046 | [9] 0 | [10] -0.054 | [11] -0.042 | [12] 0.021 | [14] 0.04 | [15] -0.054 | [16] 0.035 | [17] 0.032 | [18] -0.034 | [19] -0.1 | [20] -0.127

Reference: the supplement of paper PMC10849652
